Weaker means in comparison with the reference protein, sequence or condition of that experiment. Tags and fusion partners may be left off the protein sequences shown.
Assays:
[1] = target: T1, METTL16 MTD (methyltransferase domain) (Homo sapiens) (UniProt Q86W50); experiment: EMSA; settings: 20 mM HEPES pH 7.5, 50 mM NaCl, 0.05% Tween 20, 0.05 mg/mL BGG, room temperature; EMSA […] native PAGE 0.5x TBE at 4 C; recombinant protein; residues 1-291; label: FAM (5')
T1 sequence (looked up): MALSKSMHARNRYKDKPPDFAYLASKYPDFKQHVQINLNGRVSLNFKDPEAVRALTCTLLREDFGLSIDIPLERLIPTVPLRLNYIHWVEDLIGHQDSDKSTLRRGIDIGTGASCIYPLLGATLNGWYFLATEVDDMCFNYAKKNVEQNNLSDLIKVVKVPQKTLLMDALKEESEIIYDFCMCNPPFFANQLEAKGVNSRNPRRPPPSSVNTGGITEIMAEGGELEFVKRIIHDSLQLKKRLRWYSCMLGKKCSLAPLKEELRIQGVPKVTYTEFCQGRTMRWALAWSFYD

[2] = target: T1, METTL16 MTD (methyltransferase domain) (Homo sapiens); experiment: competition FP; settings: vs FAM-MAT2A-hp1, less potent than pre-miR-17-hp; 20 mM HEPES pH 7.5, 50 mM NaCl, 0.05% Tween 20, 0.05 mg/mL BGG, room temperature; EMSA […] native PAGE 0.5x TBE at 4 C; recombinant protein; residues 1-291

| Sequence | binding result [1] | binding result [2] |
| --- | --- | --- |
| UUCUUCUGUGGACUGUG [FAM-GGACU-RNA] | binds more weakly | – |
| GUGCAGGUAGAUGAUAUGUGCAUCUACCUGCAC [pre-miR-17-hp bp] | – | binds more weakly |

Source: publication PMC11040665, “Aminothiazolone Inhibitors Disrupt the Protein–RNA Interaction of METTL16 and Modulate the m^6A RNA Modification” (JACS Au, 2024)
